From article PMC6356859 (ACS Omega, 2019)

System: EBOV
Assay type: cell-based, Ebola virus

OCCN1CCN(CCCN2c3ccccc3Sc3ccc(C(F)(F)F)cc32)CC1 [Fluphenazine 2HCl]
selectivity indexes: < 5
